Assay results reported in article PMC12506269.
Results are given in words; binding and its absence hold for the method and conditions named. In cells and extracts the contact can be indirect. A yes stands for co-enrichment or nearness to the bait. Other partners may have been found.

Amino acid sequences for entries named in this document (tags omitted).
UniProt P06733: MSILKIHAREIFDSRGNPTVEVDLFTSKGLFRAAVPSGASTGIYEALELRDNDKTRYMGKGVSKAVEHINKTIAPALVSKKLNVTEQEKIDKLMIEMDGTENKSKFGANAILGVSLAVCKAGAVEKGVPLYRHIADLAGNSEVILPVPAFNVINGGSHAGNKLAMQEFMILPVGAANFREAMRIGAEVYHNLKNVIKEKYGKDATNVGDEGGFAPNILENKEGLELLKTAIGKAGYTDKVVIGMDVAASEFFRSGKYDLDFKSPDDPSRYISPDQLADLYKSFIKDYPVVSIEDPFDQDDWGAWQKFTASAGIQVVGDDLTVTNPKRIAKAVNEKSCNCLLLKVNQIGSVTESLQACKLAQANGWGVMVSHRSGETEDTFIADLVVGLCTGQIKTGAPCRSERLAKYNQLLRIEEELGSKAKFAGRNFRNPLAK

Target: T1, SENP1 (Sentrin-specific protease 1), endogenous in gastric cancer cells (human (endogenous in MKN-45 and HGC-27)) (UniProt Q9P0U3)
T1 sequence: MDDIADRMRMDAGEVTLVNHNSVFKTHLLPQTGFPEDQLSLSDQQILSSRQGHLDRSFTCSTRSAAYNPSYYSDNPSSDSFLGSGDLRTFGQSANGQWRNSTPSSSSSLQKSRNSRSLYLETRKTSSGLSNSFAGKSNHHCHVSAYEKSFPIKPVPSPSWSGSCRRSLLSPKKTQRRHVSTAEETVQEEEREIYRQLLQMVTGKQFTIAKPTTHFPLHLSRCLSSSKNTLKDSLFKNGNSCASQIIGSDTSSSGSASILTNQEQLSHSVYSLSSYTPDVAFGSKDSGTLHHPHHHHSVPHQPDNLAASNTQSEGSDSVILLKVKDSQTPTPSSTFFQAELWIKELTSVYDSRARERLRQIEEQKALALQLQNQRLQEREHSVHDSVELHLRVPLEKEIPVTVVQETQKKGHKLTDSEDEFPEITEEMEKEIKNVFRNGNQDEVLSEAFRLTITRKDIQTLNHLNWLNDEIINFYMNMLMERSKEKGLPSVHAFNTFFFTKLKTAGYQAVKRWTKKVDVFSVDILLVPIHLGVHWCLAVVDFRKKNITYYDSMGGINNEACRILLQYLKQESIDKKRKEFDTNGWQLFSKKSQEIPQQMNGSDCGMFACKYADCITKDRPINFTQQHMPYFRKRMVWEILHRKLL
Experiment: affinity purification with mass spectrometry; co-immunoprecipitation of SENP1, SDS-PAGE, silver staining, mass spectrometry of the gel; cells not given

- binding: binds
Substance: α-enolase (ENO1), endogenous in gastric cancer cells (from UniProt P06733 1-434) (enzyme)
